Assay results taken from paper PMC8983040.
No constants are given. Whether binding was seen depends on the method and setting. Binding seen in cells or lysates may run through a third protein. Sequences can lack the tags named with a protein.

The chains behind the UniProt entries cited, without tags or fusion partners.
UniProt Q4AC94: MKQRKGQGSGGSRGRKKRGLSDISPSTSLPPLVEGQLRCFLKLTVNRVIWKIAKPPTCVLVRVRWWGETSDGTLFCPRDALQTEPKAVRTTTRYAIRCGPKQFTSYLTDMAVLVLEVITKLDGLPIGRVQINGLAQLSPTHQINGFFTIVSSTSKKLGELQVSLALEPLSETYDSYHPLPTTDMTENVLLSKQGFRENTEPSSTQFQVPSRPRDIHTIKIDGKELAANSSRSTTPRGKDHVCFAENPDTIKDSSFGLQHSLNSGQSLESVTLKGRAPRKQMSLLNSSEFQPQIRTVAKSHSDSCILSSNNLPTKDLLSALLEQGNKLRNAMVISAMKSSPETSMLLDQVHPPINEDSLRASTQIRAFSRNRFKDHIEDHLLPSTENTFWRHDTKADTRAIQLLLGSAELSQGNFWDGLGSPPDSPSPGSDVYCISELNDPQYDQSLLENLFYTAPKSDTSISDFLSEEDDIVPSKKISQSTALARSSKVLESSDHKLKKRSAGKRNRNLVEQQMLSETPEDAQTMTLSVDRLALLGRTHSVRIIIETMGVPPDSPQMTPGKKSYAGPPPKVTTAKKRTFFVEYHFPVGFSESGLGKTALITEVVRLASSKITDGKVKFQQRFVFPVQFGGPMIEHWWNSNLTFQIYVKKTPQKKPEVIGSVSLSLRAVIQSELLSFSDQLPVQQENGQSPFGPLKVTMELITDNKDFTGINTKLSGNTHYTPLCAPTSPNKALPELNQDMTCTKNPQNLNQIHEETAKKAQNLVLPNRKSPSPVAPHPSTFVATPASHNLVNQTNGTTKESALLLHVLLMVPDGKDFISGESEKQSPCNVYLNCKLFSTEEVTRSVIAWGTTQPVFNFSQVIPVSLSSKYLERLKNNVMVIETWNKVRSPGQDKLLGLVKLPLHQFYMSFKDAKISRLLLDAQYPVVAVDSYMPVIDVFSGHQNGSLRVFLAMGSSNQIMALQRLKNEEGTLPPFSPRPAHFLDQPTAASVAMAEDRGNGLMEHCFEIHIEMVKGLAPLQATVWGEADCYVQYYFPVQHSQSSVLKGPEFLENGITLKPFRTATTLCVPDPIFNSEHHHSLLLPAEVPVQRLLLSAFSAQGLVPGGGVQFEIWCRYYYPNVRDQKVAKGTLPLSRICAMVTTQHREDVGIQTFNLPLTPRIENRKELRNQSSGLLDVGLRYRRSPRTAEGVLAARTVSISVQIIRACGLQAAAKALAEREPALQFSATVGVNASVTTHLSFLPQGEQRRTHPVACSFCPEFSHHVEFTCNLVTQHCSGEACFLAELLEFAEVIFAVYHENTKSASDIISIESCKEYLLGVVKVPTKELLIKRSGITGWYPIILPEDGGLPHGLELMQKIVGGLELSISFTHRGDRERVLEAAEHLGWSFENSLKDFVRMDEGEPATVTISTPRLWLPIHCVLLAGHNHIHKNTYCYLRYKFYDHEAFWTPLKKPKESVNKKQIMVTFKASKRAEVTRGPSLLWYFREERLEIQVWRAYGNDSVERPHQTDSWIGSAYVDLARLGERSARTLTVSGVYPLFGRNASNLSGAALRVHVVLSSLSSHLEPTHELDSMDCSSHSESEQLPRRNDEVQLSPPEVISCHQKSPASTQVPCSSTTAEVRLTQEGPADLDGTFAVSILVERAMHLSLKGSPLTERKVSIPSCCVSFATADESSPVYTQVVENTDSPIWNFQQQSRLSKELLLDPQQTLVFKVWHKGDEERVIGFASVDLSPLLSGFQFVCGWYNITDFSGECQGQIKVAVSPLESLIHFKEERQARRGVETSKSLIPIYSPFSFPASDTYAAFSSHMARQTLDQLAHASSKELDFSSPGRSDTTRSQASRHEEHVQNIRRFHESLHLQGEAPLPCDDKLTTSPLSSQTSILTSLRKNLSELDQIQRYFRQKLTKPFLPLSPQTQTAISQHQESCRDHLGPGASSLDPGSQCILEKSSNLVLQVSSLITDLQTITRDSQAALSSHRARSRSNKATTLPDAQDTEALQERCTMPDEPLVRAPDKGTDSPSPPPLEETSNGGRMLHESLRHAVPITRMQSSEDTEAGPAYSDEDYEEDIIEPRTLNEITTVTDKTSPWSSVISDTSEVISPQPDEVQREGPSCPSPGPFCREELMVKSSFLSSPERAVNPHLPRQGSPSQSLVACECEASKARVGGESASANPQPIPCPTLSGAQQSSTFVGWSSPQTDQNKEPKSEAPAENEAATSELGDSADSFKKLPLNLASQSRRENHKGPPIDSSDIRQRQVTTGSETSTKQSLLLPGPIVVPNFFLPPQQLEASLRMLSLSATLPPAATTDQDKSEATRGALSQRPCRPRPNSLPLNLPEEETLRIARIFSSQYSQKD

Target: T1, LRRCC1 with GFP inserted after aa 402 (human) (UniProt Q9C099)
T1 sequence: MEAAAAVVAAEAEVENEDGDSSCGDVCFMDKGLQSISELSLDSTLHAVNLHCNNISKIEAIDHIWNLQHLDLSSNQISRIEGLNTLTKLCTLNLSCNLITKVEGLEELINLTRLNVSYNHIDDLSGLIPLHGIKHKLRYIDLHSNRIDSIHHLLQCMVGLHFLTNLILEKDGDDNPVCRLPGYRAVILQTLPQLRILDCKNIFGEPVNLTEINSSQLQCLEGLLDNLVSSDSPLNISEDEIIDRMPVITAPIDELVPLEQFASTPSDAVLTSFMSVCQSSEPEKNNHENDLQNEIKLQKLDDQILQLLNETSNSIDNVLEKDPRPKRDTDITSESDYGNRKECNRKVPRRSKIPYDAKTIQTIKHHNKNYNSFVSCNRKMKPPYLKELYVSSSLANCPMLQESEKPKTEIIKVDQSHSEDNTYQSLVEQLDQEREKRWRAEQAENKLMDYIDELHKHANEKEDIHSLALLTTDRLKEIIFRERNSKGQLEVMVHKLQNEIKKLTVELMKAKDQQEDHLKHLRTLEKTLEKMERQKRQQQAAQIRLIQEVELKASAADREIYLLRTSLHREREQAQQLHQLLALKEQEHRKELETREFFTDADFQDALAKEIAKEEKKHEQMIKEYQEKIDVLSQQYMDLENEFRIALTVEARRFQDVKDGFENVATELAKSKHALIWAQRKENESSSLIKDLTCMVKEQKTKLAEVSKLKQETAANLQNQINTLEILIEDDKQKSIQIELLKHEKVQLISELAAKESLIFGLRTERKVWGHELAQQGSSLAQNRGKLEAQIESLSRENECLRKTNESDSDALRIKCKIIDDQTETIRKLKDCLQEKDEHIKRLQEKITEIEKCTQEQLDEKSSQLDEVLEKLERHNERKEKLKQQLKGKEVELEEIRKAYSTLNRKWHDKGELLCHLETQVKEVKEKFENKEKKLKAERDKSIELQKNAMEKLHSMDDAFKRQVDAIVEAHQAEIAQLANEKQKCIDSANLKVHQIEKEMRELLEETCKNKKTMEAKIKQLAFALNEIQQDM
Experiment: co-IP; lysate of doxycycline-induced HEK 293 (Flp-In-293) cells expressing LRRCC1 with GFP after aa 402; lysis buffer 50 mM Tris pH 8, 150 mM NaCl, 1% NP-40, 0.5% sodium deoxycholate, 0.1% SDS; anti-GFP (control: anti-HA) on Dynabeads, 3 hr at 4°C; Western blot with anti-GFP or anti-C2CD3

binding: no binding
Substance: C2CD3 (C2 domain containing 3) (from UniProt Q4AC94 1-2353)
